From PubChem BioAssay AID493014 (National Center for Advancing Translational Sciences (NCATS), 2011)
Among all 340,000 compounds or so, about 170 (0.05%) were called active. Inconclusive results, whose numbers are uncertain, are shown with a selection of clear calls. Calls follow the shape of the dose curve; as a rule, active = well fitted inhibition curve with a large enough effect in the signal ratio, with a control signal flat (not every such curve was filed as active); inconclusive = small, poorly fitted or top-dose-only effect, or effect the other way, or a change in a side signal; inactive = flat fitted curve, though single readings scatter; the % refers to the signal ratio. Potencies of inconclusive entries are doubtful fits and often do not repeat.
Potency is read from the fitted curve at half-maximal effect.

Test: qHTS Assay to Find Inhibitors of Chronic Active B-Cell Receptor Signaling;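 as to activity change, negative = inhibition: plate controls were basal doxycycline-induced cells for no effect and cells given 10 µM MG132 for full effect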
Details: ABC-DLBCL IkBa-CBG/CBR reporter, luminescence ratio (green luciferase fused to IkBa over red control in TMD8 lymphoma cells), 4 h; activity change, negative = inhibition: at 46.1 µM (top of the series) unless noted
Procedure, shortened: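 Cell line TMD8 (human ABC DLBCL), stably expressing tet-inducible CBG68-IkBa fusion and CBR; IMDM/0.5% FBS; cpd up to 46 uM; dox induction, 4 h, 37C/5% CO2; dual luminescence; green/red ratio; MG132 control.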
For `CCOC(=O)Nc1nc2ccccc2s1`, the activity change, negative = inhibition was inconclusive: 13.8%.
In the case of `COc1ccc(N2CCN(C(=O)c3cn(C)c(=O)c4c3c3ccccc3n4C)CC2)cc1`, the “activity change, negative = inhibition” value is reported as inactive: -10.4%.
In the case of `CC(C)N(Cc1nc(-c2ccccc2)no1)C(=O)C(C)(C)C`, the activity change, negative = inhibition is reported as inconclusive: 4.09%.
For `COc1ccccc1/C=N/NC(=O)c1ccc(NC(=O)c2cccc([N+](=O)[O-])c2)cc1`, the Potency was inconclusive: 25.1 µM [falling, single point].
With `OCCCC1CCCN(Cc2cn[nH]c2-c2ccc(F)cc2F)C1` (stereo not drawn) the Potency was inconclusive: 25.1 µM [rising, partial curve, poor fit].
For `CCOc1cc(/C=C2/NC(=O)N(Cc3ccccc3F)C2=O)ccc1O`, the activity change, negative = inhibition was inconclusive: -29.1%.
With `O=C(CCc1nnc(CCCCc2ccccc2)o1)N1CCCC(O)C1` (stereo not drawn) the “activity change, negative = inhibition” value was inactive: 1.16%.
For `CCOC(=O)CNC(=O)c1ccccc1`, the Potency was inconclusive: 17.8 µM [falling, partial curve].
For `O=C(CN1C(=O)NC2(CCCC2)C1=O)OCc1ccc(Cl)c(Cl)c1`, the activity change, negative = inhibition was inconclusive: 9.65%.
With `Cc1cnc(C(=O)NNC(=O)c2ccc(Br)cc2)cn1` the “activity change, negative = inhibition” value was inactive: -25.5%.
With `COc1ccccc1OCCCc1c(C)n[nH]c1C` the “activity change, negative = inhibition” value was inactive: -18.5%.
In the case of `Cn1c(N)c(S(=O)(=O)c2ccc(Br)cc2)c2nc3ccccc3nc21`, the activity change, negative = inhibition is reported as inconclusive: 3.63%.
With `COc1ccccc1NC(=O)N(CCN(C)C)Cc1cc2cc(C)ccc2[nH]c1=O` the Potency was inconclusive: 1.03 µM [falling, partial curve, poor fit].
For `CCOC(=O)C1CCN(c2ccc(C(N)=O)cc2[N+](=O)[O-])CC1`, the “activity change, negative = inhibition” value was inactive: -9.73%.
For `COc1cc(/C=C2/SC(=S)N(c3c(C)n(C)n(-c4ccccc4)c3=O)C2=O)ccc1O`, the activity change, negative = inhibition was inconclusive: 16.5%.
In the case of `CSc1ccc(C#N)cc1NC(=O)c1ccc(Cl)cc1Cl`, the Potency is reported as inconclusive: 23.1 µM [rising, partial curve, poor fit].
For `COc1ccccc1-c1nc(-c2cccc(C)c2)no1`, the Potency was inconclusive: 4.61 µM [falling, single point].
In the case of `CC(=O)C(=Cc1cc(C)n(-c2ccccc2)c1C)C(C)=O`, the activity change, negative = inhibition is reported as inconclusive: 4.33%.
For `CS(=O)(=O)c1ccc2nc(NC(=O)C3COc4ccccc4O3)sc2c1` (stereo not drawn), the activity change, negative = inhibition was inconclusive: -3.67%.
For `C/C(=N/NC(=O)c1cccs1)c1ccco1`, the Potency was inconclusive: 29.1 µM [falling, single point].
In the case of `O=C1C2CC=CCC2C(=O)N1CC1CCCO1` (stereo not drawn), the activity change, negative = inhibition is reported as inconclusive: 1.01%.
For `CCOc1cc(C(=O)N/N=C/C2CC=CCC2)cc(OCC)c1OCC` (stereo not drawn), the Potency was inconclusive: 8.2 µM [falling, partial curve, poor fit].
For `Cc1cccc(C2N=C(N)Nc3nc4ccccc4n32)c1` (stereo not drawn), the “activity change, negative = inhibition” value was inactive: 0.316%.
For `Cc1c(C(=O)Oc2cccc3cccnc23)oc2ccccc12`, the Potency was inconclusive: 15.8 µM [cytotoxic, partial curve].
In the case of `O=C(Nc1cccc(Cl)c1)c1cc(N=Nc2ccc([N+](=O)[O-])cc2Cl)ccc1O`, the Potency is reported as inconclusive: 0.501 µM [rising, full curve].
With `C=CC[C@@H](Cc1ccc(F)cc1)C(=O)OC[C@@H]1CCCN1C(=O)[C@H](CC=C)CC(=O)N(CCO)Cc1ccccc1` the activity change, negative = inhibition was inconclusive: -0.107%.
For `Cc1ccc(Nc2nc(COC(=O)COc3ccc(C=O)cc3)cs2)cc1`, the activity change, negative = inhibition was inconclusive: 0.726%.
In the case of `COc1ccc(CNC(=O)CSc2nnc3c(n2)[nH]c2ccccc23)cc1`, the activity change, negative = inhibition is reported as inconclusive: 2.81%.
With `COc1ccc(/C=C/c2nc(-c3ccccc3O)n[nH]2)cc1OC` the Potency was inconclusive: 23.1 µM [falling, partial curve].
With `COC(=O)c1ccc(/C=C2/SC(=S)N(CCCC(=O)Nc3ccc(O)cc3)C2=O)cc1` the activity change, negative = inhibition was inconclusive: -6.71%.
In the case of `O=C(NCCc1ccccc1)c1ccc2c(c1)OCCCO2`, the Potency is reported as inconclusive: 4.47 µM [falling, partial curve].
In the case of `CCOC(=O)C1=CN(Cc2cccc(-c3ccc(F)cc3)c2)S(=O)(=O)N(C)C1C` (stereo not drawn), the “activity change, negative = inhibition” value is reported as inactive: -4.38%.
For `O=C(Cc1ccccc1)NCC(=O)N1CCc2ccccc2C1`, the Potency was inconclusive: 25.1 µM [falling, single point].
In the case of `O=C(Cc1ccc(Br)cc1)Nc1ccc(Cl)cc1`, the activity change, negative = inhibition is reported as inconclusive: 5.23%.
For `O=C(O)CSc1ncnc2sc3c(c12)CCCC3`, the activity change, negative = inhibition was inconclusive: 7.65%.
For `CN=C(C)C1=C(O)C(C(=O)OC)C(C)(C)CC1=O` (stereo not drawn), the activity change, negative = inhibition was inconclusive: -4.88%.
For `CCOC(=O)c1cccc(Nc2nc(C)cc(C)n2)c1`, the Potency was inconclusive: 0.0517 µM [rising, full curve].
With `Cc1cc(=O)[nH]c2nnc(-c3ccc(Br)cc3)n12` the Potency was inconclusive: 35.5 µM [rising, single point].
For `O=C(CSc1nnc(-c2ccco2)o1)c1ccccc1Cl`, the activity change, negative = inhibition was inconclusive: -12.7%.
With `COc1ccccc1NC(=O)c1ccc2nsnc2c1` the activity change, negative = inhibition was inconclusive: -3.28%.
In the case of `Cn1c(N)c(C(=O)CSc2nnnn2-c2ccccc2)c(=O)n(C)c1=O`, the Potency is reported as inconclusive: 3.98 µM [falling, partial curve, poor fit].
In the case of `COc1ccccc1NC(=O)N(Cc1cccs1)Cc1cc2cc3c(cc2[nH]c1=O)OCO3`, the activity change, negative = inhibition is reported as inconclusive: 10.7%.
For `COc1ccc(-c2cc3nc4c(c(N5CCC6(CC5)OCCO6)n3n2)CCC4)cc1`, the “activity change, negative = inhibition” value was inactive: -19.9%.
In the case of `Cn1c(=O)c2c(nc(NCC3CCCO3)n2C)n(C)c1=O` (stereo not drawn), the activity change, negative = inhibition is reported as inconclusive: 13.4%.
With `CN(C)CCNC(=O)c1csc(Nc2cccc3ccccc23)n1` the Potency was inconclusive: 22.4 µM [falling, single point].
In the case of `O=C(N=C1N=C2C=CC=CN2Cc2ccccc21)c1ccc(S(=O)(=O)N2CCCC2)cc1`, the Potency is reported as inconclusive: 1.78 µM [activator, full curve, poor fit].
For `CNC(=S)NNC(=O)c1cccn(Cc2ccc(Cl)cc2Cl)c1=O`, the activity change, negative = inhibition was inconclusive: 5.65%.
For `Cc1ccc([N+](=O)[O-])cc1N=Nc1c(-c2ccc([N+](=O)[O-])cc2)[nH]n(C(N)=S)c1=O`, the Potency was inconclusive: 3.16 µM [cytotoxic, partial curve].
With `c1ccc(-c2nc(N3CCOCC3)sc2-c2ccccc2)cc1` the activity change, negative = inhibition was inconclusive: 17.4%.
With `Cc1cc(C)cc(C(=O)NC(=S)Nc2ccc(Cc3ccncc3)cc2)c1` the activity change, negative = inhibition was inconclusive: 1.87%.
With `Fc1cccc(CSc2ccc(-c3ccco3)nn2)c1` the activity change, negative = inhibition was inconclusive: 2.48%.
In the case of `COC(c1ccccc1)c1nnc(CCC(=O)NCc2cccc(-n3cccn3)c2)o1` (stereo not drawn), the Potency is reported as inconclusive: 0.1 µM [falling, full curve, poor fit].
In the case of `Cc1nn(-c2ccccc2)c(Cl)c1C(=O)NNC(=O)c1ccncc1`, the activity change, negative = inhibition is reported as inconclusive: 7.78%.
For `O=C(Nc1cc2c3c(c1)CC(=O)N3CCC2)C1CCCCC1`, the Potency was inconclusive: 29.1 µM [falling, single point].
For `CCc1ccc(C(=O)COC(=O)C(CCSC)NC(=O)C23CC4CC(CC(C4)C2)C3)cc1` (stereo not drawn), the activity change, negative = inhibition was inconclusive: 0.549%.
With `CCn1c(C)nc2cc(-c3nnc(-c4c(-c5ccccc5)noc4C)o3)ccc21` the activity change, negative = inhibition was inconclusive: 0.161%.
With `N#C/C(=C/c1ccncc1)c1nc2ccccc2s1` the Potency was inconclusive: 20 µM [falling, partial curve].
For `CCN(CC)CCCN1C(=O)C(O)=C(C(=O)c2sc(C)nc2C)C1c1ccco1` (stereo not drawn), the activity change, negative = inhibition was inconclusive: 1%.
With `O=c1[nH]c(SCc2ccccc2)nc2c1sc1ccccc12` the activity change, negative = inhibition was inconclusive: 3.45%.
With `Cc1cc(NC(=O)/C=C/c2ccccc2)no1` the activity change, negative = inhibition was inconclusive: -29.6%.
In the case of `CC(C)Oc1ccc(Nc2ncnc3ccccc23)cc1`, the activity change, negative = inhibition is reported as inconclusive: -1.11%.
In the case of `O=C(Nc1ccc([N+](=O)[O-])cn1)c1cc(-c2cccc(Br)c2)nc2ccccc12`, the “activity change, negative = inhibition” value is reported as inactive: 1.89%.
For `O=C(Nc1ccccc1Cl)C1CCN(S(=O)(=O)c2cccc3nonc23)CC1`, the activity change, negative = inhibition was inconclusive: -24.2%.
For `CC1(C)Cc2c(sc3nc(-c4cccs4)n(N)c(=O)c23)CO1`, the “activity change, negative = inhibition” value was inactive: 0.257%.
In the case of `CCOc1c2ccc(C(=O)NCc3cc(C(F)(F)F)cc(C(F)(F)F)c3)cc2nn1C`, the activity change, negative = inhibition is reported as inconclusive: 3.96%.
With `CC(C)NC(=O)NC(=O)CSc1nnc(-c2c[nH]c3ccccc23)o1` the Potency was inconclusive: 35.5 µM [falling, single point].
With `Cc1noc(C)c1COc1cccc(C(=O)NCc2cccc(Cl)c2)c1` the activity change, negative = inhibition was inconclusive: -3.39%.
With `COc1ccc([C@H]2CC(=O)C=C(c3ccc(NC(C)=O)cc3)C2)cc1OC` the Potency was inconclusive: 0.731 µM [falling, full curve, poor fit].
In the case of `O=C(/C=C/c1ccc([N+](=O)[O-])o1)NNC(=O)c1ccc(F)cc1`, the Potency is reported as inconclusive: 22.4 µM [falling, single point].
In the case of `Cc1ccc(-n2ncc3c(=O)n(CC#N)cnc32)cc1`, the activity change, negative = inhibition is reported as inconclusive: 1.12%.
For `COc1cccc(-c2coc3cc4oc(=O)c(CCC(=O)O)c(C)c4cc23)c1`, the activity change, negative = inhibition was inconclusive: -2.08%.
In the case of `O=C(OCC(F)(F)F)c1cccc(COc2ccc3ccccc3c2)c1`, the Potency is reported as inconclusive: 29.1 µM [rising, partial curve, poor fit].
In the case of `COc1cc(CCC(=O)OCC(=O)Nc2ccc(C)cc2Br)cc(OC)c1OC`, the activity change, negative = inhibition is reported as inconclusive: -23.5%.
With `O=C(CSc1nccc(=O)[nH]1)Nc1ccc(Br)c(Cl)c1` the activity change, negative = inhibition was inconclusive: 7.22%.
With `COc1ccc(CCCc2nnc(SCC(=O)Nc3ccc(C)cc3)o2)cc1C` the “activity change, negative = inhibition” value was inactive: -2.02%.
In the case of `CCCCNC(=O)Nc1cc(C(=O)OC)ccc1Cl`, the activity change, negative = inhibition is reported as inconclusive: 14.1%.
For `Cc1cccc(OCC(=O)N(Cc2ccco2)c2c(N)n(Cc3ccccc3)c(=O)[nH]c2=O)c1`, the activity change, negative = inhibition was inconclusive: -17.7%.
For `CN1C(=O)c2ccccc2C(C(=O)O)C1c1cccc(F)c1` (stereo not drawn), the activity change, negative = inhibition was inconclusive: 5.65%.
